Experiment [1] has as its target T1, endogenous MAVS (mouse RAW264.7 cells and MEFs) (mouse (endogenous in RAW264.7 and MEFs)) (UniProt Q8VCF0).
T1 sequence: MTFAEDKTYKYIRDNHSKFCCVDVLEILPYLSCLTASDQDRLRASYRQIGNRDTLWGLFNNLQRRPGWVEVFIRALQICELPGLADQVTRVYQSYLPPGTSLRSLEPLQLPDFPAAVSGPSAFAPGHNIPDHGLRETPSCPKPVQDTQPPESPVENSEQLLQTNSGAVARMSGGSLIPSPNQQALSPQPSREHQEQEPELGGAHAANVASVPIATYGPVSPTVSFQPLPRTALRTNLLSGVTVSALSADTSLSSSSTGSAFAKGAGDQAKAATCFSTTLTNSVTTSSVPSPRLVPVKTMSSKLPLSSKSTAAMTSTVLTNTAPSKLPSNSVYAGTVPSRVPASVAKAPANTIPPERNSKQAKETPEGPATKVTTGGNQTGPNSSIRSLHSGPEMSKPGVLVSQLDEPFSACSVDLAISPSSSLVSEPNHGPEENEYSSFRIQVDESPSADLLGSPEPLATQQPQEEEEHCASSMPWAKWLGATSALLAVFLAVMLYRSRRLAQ
Nature of the experiment: co-IP.

Amino acid sequences for entries named in this document (tags omitted).
UniProt Q9WTV6: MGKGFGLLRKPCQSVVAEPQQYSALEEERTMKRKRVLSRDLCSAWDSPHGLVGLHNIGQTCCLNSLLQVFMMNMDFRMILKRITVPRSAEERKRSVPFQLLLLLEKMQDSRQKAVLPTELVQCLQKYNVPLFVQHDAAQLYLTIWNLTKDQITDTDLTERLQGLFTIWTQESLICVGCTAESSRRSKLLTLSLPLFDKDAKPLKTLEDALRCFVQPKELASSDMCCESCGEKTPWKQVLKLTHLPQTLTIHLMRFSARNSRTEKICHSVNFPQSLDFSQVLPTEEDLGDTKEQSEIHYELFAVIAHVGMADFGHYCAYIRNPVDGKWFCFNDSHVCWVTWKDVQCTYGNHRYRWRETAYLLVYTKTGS

The target of experiment [2] is T2, endogenous MAVS (mouse RAW264.7 cells and MEFs) (mouse (endogenous in RAW264.7 and MEFs)), Q8VCF0.
T2 chain: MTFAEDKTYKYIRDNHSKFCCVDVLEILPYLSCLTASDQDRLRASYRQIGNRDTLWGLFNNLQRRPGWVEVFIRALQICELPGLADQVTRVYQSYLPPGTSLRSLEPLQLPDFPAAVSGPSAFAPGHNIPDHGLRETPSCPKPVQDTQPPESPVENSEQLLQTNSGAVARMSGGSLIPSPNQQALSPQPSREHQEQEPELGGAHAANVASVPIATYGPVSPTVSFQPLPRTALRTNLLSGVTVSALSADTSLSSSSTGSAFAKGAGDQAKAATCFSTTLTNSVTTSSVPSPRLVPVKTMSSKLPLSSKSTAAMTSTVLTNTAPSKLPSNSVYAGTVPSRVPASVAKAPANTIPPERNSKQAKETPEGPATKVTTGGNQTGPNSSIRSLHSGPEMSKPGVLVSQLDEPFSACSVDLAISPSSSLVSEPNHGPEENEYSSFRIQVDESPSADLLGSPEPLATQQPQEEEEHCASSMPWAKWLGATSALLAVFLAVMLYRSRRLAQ
Nature of the experiment: SDD-AGE. To be noted: remark: other sources report otherwise.

Experiment [3] concerns the target T3, endogenous IRF3 (MEFs) (mouse (endogenous in MEFs)), P70671.
T3 chain: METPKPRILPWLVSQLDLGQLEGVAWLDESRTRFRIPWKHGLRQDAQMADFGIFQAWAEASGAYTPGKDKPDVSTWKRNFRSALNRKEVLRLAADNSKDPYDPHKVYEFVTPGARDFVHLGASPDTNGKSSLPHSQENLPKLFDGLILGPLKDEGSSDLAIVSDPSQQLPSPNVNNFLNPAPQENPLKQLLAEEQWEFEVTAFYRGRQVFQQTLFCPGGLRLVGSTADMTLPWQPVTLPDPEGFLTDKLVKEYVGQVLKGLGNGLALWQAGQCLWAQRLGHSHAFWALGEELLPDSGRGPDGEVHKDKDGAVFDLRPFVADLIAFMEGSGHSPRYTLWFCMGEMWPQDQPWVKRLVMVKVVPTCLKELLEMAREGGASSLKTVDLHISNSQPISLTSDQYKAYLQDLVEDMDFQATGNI
The experiment can be described thus: native gel or EMSA. To be noted: remark: other sources report otherwise. In general terms: Mobility shift assays separate free from complexed probe on a gel.

Results on three molecules are retold here after paper PMC8137702.

These are yes or no findings as the source states them, for the method shown. For part of these data: In cells and extracts the contact can be indirect. Some binding calls cover weakened binding; strength is not graded here.

Turning to “endogenous USP18 (RAW264.7 cells) (from UniProt Q9WTV6 1-368) (enzyme)”, the binding entry in experiment [1] is on record as “binds”.

B1: endogenous MAVS (mouse RAW264.7 cells and MEFs), Q8VCF0 1-503 (protein)
chain: MTFAEDKTYKYIRDNHSKFCCVDVLEILPYLSCLTASDQDRLRASYRQIGNRDTLWGLFNNLQRRPGWVEVFIRALQICELPGLADQVTRVYQSYLPPGTSLRSLEPLQLPDFPAAVSGPSAFAPGHNIPDHGLRETPSCPKPVQDTQPPESPVENSEQLLQTNSGAVARMSGGSLIPSPNQQALSPQPSREHQEQEPELGGAHAANVASVPIATYGPVSPTVSFQPLPRTALRTNLLSGVTVSALSADTSLSSSSTGSAFAKGAGDQAKAATCFSTTLTNSVTTSSVPSPRLVPVKTMSSKLPLSSKSTAAMTSTVLTNTAPSKLPSNSVYAGTVPSRVPASVAKAPANTIPPERNSKQAKETPEGPATKVTTGGNQTGPNSSIRSLHSGPEMSKPGVLVSQLDEPFSACSVDLAISPSSSLVSEPNHGPEENEYSSFRIQVDESPSADLLGSPEPLATQQPQEEEEHCASSMPWAKWLGATSALLAVFLAVMLYRSRRLAQ
B1: in experiment [2], the binding entry was “binds”.

B2: endogenous IRF3 (MEFs), P70671 1-419 (protein)
chain: METPKPRILPWLVSQLDLGQLEGVAWLDESRTRFRIPWKHGLRQDAQMADFGIFQAWAEASGAYTPGKDKPDVSTWKRNFRSALNRKEVLRLAADNSKDPYDPHKVYEFVTPGARDFVHLGASPDTNGKSSLPHSQENLPKLFDGLILGPLKDEGSSDLAIVSDPSQQLPSPNVNNFLNPAPQENPLKQLLAEEQWEFEVTAFYRGRQVFQQTLFCPGGLRLVGSTADMTLPWQPVTLPDPEGFLTDKLVKEYVGQVLKGLGNGLALWQAGQCLWAQRLGHSHAFWALGEELLPDSGRGPDGEVHKDKDGAVFDLRPFVADLIAFMEGSGHSPRYTLWFCMGEMWPQDQPWVKRLVMVKVVPTCLKELLEMAREGGASSLKTVDLHISNSQPISLTSDQYKAYLQDLVEDMDFQATGNI
Take B2: the binding result in experiment [3] is reported as “binds”.
